Among the data in patent US20240084003A1 are binding values, retold here.

B1: F1.224.1 (antibody, human IgG1, kappa, V domains shown)
VH: EVLLHQSGPELVKPGASVKISCKASGYTFTDFNMDWVRQRHGQSLEWIGDVNPNNGGTIYNQKFKGKATLTVDKSSSTVYMDLRSLTSDDTAVYYCVRLGTSDYGEAWFISWGQGTVVTVSA
VL: DIVLTQSPASLAVSLGQRATISCRASQSVSTPRYSFMHWYQQKPGQPPKLLIKYASNLESGFPARFTGSGSGTDFTLNIHPVEEEDTAAYYCQQSWAIPWTFGGGTKLEIKR
B2: F2.151.13 (antibody, human IgG1, lambda, V domains shown)
VH: QVHLQQPGTELMKPGASVKLSCKATGYTFRDYWLEWVKQRPGHGLEWIGEILPGSGNAYYNEKFKGKATFTADTSSNTAYMQLSSLTTEDSAIYYCARVYSNWYFDAWGKGTTVTVSS
VL: QAVVTQESALTTSPGETVTLTCRSSTGAVTTSNYANWVQEKPDHLFTGLIGGTNNQAPGVPARFSGSLIGDKAALTISGAQTEDEAIYFCALWFSNHWVFGGGTKLTVLG
B3: F1.216.2 (antibody, human IgG1, kappa, V domains shown)
VH: QVQLQQSGPEVVRPGASVKISCKASGYAFSSSWMNWMKQRPGKALEWIGRIYPGDGDTNYSGEFKVKATLTADKSSSTAYMQLSSLTSEDSAVYFCAREGSYYSNPWYFDYWGQGTTLTVSS
VL: DVLVTQTPLSLPVSLGDQASISCRSSQSIVQSNGDTYLEWYLQKPGQSPKLLIYKVSNRFSGVPDRFSGSGSGTDFTLKISRVEAEDLGVYYCFQGSHVPFTFGSGTKLEIKR
B4: F1.192.1 (antibody, human IgG1, kappa, V domains shown)
VH: AVQLQQSGVELVRPGASVKLSCTGSDFNIKEDYIHWVKQRPEQGLEWIGWIDPENGDTEYASKFQGKATITADTSSNTAYLQLSSLTSEDTAVYYCATYGSLDYWGQGTTLTVSS
VL: DIKMTQSPSSMYAFLGERVTITCKASQGINSFLTWFQQKPGKSPKTLIYRANRLVDGVPSRFSGSGSGQDYSLTISSLEYEDVGIYYCLQYDEFPRTFGGGTKLEIKR
B5: HA22-hIgG1 (antibody, V domains shown)
VH: EVQLVESGGGLVKPGGSLKLSCAASGFAFSIYDMSWVRQTPEKCLEWVAYISSGGGTTYYPDTVKGRFTISRDNAKNTLYLQMSSLKSEDTAMYYCARHSGYGTHWGVLFAYWGQGTLVTVSA
VL: DIQMTQTTSSLSASLGDRVTISCRASQDISNYLNWYQQKPDGTVKLLIYYTSILHSGVPSRFSGSGSGTDYSLTISNLEQEDFATYFCQQGNTLPWTFGCGTKLEIKR
B6: F1.120.15 (antibody, human IgG1, kappa, V domains shown)
VH: QVQLQQSGPELVKPGASVKISCKASGNAFSNSWMNWVKQRPGKGLEWIGRVYSEDGDTQYNGKFRDKATLTADRSTSTAYMQLSSLTSEDSAVYFCARWLIYYGTYGAMDYWGQGTSVTVSS
VL: B5 VL with S30N, Q37H, Y50F, I53R, L54P, H55Y, F83I, C100G
B7: F1.17.1 (antibody, human IgG1, kappa, V domains shown)
VH: QVQLKESGPGLVAPSQSLSITCTVSGFSLSRYTVHWVRQPPGKGLEWLGMIWGGGSTDYNSALKSRLSISKDNSKSQVFLKMNSLQTDDTAMYYCARPHDFDAGGFAYWGQGTLVTVSA
VL: QIVLTQSPAILSTSPGEKVTMTCSASSRVNYMYWYQQKPGSSPRLLIYDTSNLASGVPVRFSGSGSGTSYSLTISRMEAEDAATYYCQQWTSYPLTFGAGTKLELKR
B8: F1.200.11 (antibody, human IgG1, kappa, V domains shown)
VH: QNQLVQSGPELKKPGETVKISCKASGYTFTTAGMQWVQKMPGKGFKWIGWINTLSGEPKYAEDFKGRFAFSLETSATTAYLQISNLKNEDTATYFCARAYYSNLYWYFDVWGTGTTVTVSS
VL: DIVMTQSQKFMSTTVGDRVTITCKASQNVVTAVAWYQQKPGQSPKVLIYSASNRYSGVPDRFTGSGSGTDFTLTISNMHSEDLANYFCHQYSSYPFTFGSGTKLEIKR
B9: F1.172.13 (antibody, human IgG1, kappa, V domains shown)
VH: QVTLKESGPGILQSSQTLSLTCSFSGFSLSTSGMGVSWIRQPSGKGLEWLAHIYWDDDKRYNPSLKSRLTISKDTSRNQVFLKITSVDTADTATYYCARAPPPNWDEYYFDYWGQGTTLTVSS
VL: DIQMTQSPASLSASVGETVTITCRASGNIHNSLAWYQQKQGKSPQLLVHNAKTLADGVPSRFSGSGSGTQYSLKINSLQPEDFGSYYCQHFWSTPPFGGGTKLEIKR
B10: F2.55.1 (antibody, human IgG1, lambda, V domains shown)
VH: QVTLKESGPGILQPSQTLSLTCSFSGFSLSTFPLGVGWIRQPSGKGLEWLAHVWWNDDDYYNPALKSRLTISKDTSNTRVFLSVASVDTAETATYYCARLNWDRWYFDVWGTGTTVTVSS
VL: QLVLTQSSSASFSLGASAKLTCTLSSQHSAYTVEWYQQQPLKPPKYVMELKKDGSHSTGDGIPDRFSGSSSGADRYLSISNIQPEDEAIYICGVGDTVKEQFVFGGGTKVTVLG
B11: F1.105.11 (antibody, human IgG1, kappa, V domains shown)
VH: EVQLQQSGPVLVKPGASVKMSCKASGYTFSDYFMNWVKQSHGKSLEWIGIINSYSGGTSYNQKFKGKATLTVDKSSSTAYMELNSLTSEDSAVYYCARWMDYWGQGTSVTVSS
VL: DVQITQSPSYLAASPGETITINCRTSESISKHLAWYQEKPGKTNKLLIYSGSTLQSGIPSRFSGSGSGTDFTLTISSLEPEDFAMYYCQQHNEYPWTFGGGTKLEIKR
B12: F1.250.16 (antibody, human IgG1, kappa, V domains shown)
VH: QVQLQQSGAEQVKPGASVKMSCKASGYTFTTYPIEWMKQNHGESLDWIGNIHPYNDDTEYNEKFKGKATLTVEKSSNTVFLELSRLTSDDSAVYYCVRGDYYNSRYWYFDVWGTGTTVTVSS
VL: DIVMTQSQKFMSTTVGDRVSITCKAGQNVRTAVAWYQQKPGQSPKLLIYSASTRYIGVPERFTGSGSGTDFTLTITNMQSEDLADYFCQQYSSFPLTFGTGTKLELKR
B13: F2.173.9 (antibody, human IgG1, lambda, V domains shown)
VH: EVQLVESGGDLVKPGESLKLSCEASGFTFSNYAMSWVRQTPDRRLEWVATISSIGSFTYYSDSVKGRFTISRDNVKSTLHLQMNNLKSGDTAIYFCARLGVYFDSWGQGTTLTVSS
VL: QLVLTQSSSASFSLGASAKLTCTLSSQHSTYTIEWYQQQPHKPPKFVMEIKKDGSHYTGDGIPDRFSGSSSGADRYLSISNIQPEDETIYICGVSDMIKDQFVYVFGGGTKVTVLG
B14: F1.267.9 (antibody, human IgG1, kappa, V domains shown)
VH: EVQLQQSGPVLVKPGASVKMSCKASGYTFTDFYMNWAKQSHGKSLEWVGVINPYNGGINYNQKFKGKATLTVDKSSSTAYMEFNSLTSEDSAVYYCARRMEYHAMDYWGQGTSVTVSS
VL: DIVLTQSPASLAVSLGQRATISCRASESVDNYGFDFIHWYQQKPGQPPKLLIYRASNLESGIPARFSGSGSRPDFTLTINPVETDDVATYYCQQSIKDPWTFGGGTKLEIKR

Residue numbers refer to the chain shown, from its start. No constants are given. Whether binding was seen depends on the method and setting. Some entries that bind do so weakly or less than the wild type. For some of these results: Sequences can lack the tags named with a protein.

The first test addresses T1, monkey CD22 protein (ACROBiosystems, SI2-R52Ha) (monkey (rhesus monkey in paragraph 148)) (UniProt H9G1X2).
T1 sequence: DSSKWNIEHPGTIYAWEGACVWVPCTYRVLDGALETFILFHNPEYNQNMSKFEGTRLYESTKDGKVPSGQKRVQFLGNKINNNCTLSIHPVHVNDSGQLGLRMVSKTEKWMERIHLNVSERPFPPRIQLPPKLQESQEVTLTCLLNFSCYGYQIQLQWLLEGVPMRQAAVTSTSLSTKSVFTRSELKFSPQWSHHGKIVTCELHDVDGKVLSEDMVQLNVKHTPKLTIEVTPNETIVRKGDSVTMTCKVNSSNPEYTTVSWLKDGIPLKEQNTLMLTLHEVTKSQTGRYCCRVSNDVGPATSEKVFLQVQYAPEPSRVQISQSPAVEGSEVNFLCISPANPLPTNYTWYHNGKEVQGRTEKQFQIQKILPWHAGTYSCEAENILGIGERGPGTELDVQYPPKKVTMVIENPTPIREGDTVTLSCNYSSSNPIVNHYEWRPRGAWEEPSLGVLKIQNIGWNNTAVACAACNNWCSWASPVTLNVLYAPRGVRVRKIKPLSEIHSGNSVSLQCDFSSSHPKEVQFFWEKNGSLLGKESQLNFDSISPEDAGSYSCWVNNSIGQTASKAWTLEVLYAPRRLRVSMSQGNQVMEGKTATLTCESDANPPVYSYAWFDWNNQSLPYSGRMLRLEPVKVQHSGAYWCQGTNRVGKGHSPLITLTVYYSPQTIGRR
Kind of test: ELISA, monkey CD22-ECD-His coated. Background: In an ELISA, binding on a coated surface is turned into a signal by an enzyme label.
Regarding B1, the binding result is “binds”.
Regarding B2, the binding entry is recorded as “binds”.
The same measure, in the same setting: the value for B3 was “binds”.
Same read-out and setting: in the case of B4 it was “binds”; in that of B5, “binds”; in that of B6, “binds”.
Still for that read-out and setting: in the case of B7 it was “binds”; in that of B8, “binds”; in that of B9, “binds”.
In the case of B10, the binding entry is “binds”.
On the same count and under the same terms, in the case of B11 it was “binds”.
Still for that read-out and setting: in the case of B12 it was “binds”; in that of B13, “binds”.
B14: the binding entry is listed as “binds”.

In a further test the target is T1, monkey CD22 protein (ACROBiosystems, SI2-R52Ha) (monkey (rhesus monkey in paragraph 148)). Kind of test: ELISA, coated monkey CD22.
Regarding B1, the binding entry was “binds”.
The same measure, in the same setting: the value for B2 was “binds”; that for B3 was “binds”.
On the same count and under the same terms, in the case of B4 it was “binds”.
Same read-out and setting: the value for B6 was “binds”; that for B7 was “binds”.
Take B8: the binding result is given as “binds”.
As for B9, the binding result is given as “binds”.
Still for that read-out and setting: in the case of B10 it was “binds”; in that of B11, “binds”; in that of B12, “binds”.
Still for that read-out and setting: in the case of B13 it was “binds”; in that of B14, “binds”.

In a further test the target is T2, rhesus monkey CD22-ECD-His protein (rhesus monkey) (UniProt H9G1X2).
T2 sequence: T1 sequence
Kind of test: SPR (Biacore), antibody captured on Protein A chip, rhesus CD22 in solution. For orientation: Surface plasmon resonance follows binding to a sensor surface in real time, without labels.
On to B10, for which the binding result is “binds”.
